No constants are given. Whether binding was seen depends on the method and setting. In cells and extracts the contact can be indirect. Some entries that bind do so weakly or less than the wild type.
Molecular target: tripartite motif-containing 21 (TRIM21) (human (endogenous in PC-9)) (UniProt P19474)
Assay: co-IP; PC-9 cell lysate; supernatants mixed overnight at 4 °C with anti-TRIM21 or anti-STAT1 antibody and protein A/G beads, then Western blot; also in PC-9 cells overexpressing or inhibiting tRF3a-MetCAT (Fig. 6I)

Chains of the proteins cited; added tags and fusions are not shown.
UniProt P19474: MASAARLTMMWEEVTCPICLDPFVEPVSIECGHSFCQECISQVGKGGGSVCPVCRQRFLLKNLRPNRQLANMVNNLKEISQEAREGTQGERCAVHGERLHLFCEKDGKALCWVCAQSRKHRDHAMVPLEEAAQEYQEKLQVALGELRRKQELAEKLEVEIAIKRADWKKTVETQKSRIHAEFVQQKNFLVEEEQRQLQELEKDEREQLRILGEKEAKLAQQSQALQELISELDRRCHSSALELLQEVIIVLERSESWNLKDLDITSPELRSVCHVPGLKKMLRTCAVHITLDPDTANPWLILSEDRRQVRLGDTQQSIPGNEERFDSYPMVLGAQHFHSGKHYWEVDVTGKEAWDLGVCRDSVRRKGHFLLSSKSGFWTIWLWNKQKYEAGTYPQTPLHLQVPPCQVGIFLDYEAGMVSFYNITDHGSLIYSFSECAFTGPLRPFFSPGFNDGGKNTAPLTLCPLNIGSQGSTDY
UniProt P42224: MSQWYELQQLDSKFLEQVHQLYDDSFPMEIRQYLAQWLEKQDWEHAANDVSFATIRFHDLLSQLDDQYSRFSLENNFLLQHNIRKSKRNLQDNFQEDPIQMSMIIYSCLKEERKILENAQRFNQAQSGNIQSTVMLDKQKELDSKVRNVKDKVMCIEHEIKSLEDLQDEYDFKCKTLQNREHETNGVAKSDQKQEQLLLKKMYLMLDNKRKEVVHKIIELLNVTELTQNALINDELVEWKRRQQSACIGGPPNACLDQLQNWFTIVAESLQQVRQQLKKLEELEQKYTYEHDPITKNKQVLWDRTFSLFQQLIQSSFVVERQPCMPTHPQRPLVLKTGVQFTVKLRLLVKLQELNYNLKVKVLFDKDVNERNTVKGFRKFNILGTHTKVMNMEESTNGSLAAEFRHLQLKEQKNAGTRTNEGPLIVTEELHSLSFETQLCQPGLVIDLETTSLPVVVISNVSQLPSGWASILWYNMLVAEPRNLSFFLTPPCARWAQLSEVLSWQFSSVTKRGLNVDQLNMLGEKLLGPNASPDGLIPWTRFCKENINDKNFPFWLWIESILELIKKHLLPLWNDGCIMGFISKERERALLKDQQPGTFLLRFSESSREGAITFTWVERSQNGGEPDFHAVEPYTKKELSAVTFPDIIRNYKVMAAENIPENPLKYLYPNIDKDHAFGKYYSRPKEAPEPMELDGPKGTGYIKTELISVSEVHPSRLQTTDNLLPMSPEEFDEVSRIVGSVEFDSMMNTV

signal transducer and activator of transcription 1 (STAT1) (from UniProt P42224 1-750)
binding: binds
